Data from paper PMC12514575.
These are yes or no findings as the source states them, for the method shown. Binding seen in cells or lysates may run through a third protein. Binding can be weak; no strength is given.

Target: FLAG-tagged truncated DCAF13 mutant DCAF13^SOF1Δ
Test: co-IP; lysate of 293T cells overexpressing FLAG-DCAF13 or FLAG-DCAF13^SOF1Δ; anti-FLAG or IgG on Protein A/G magnetic beads, overnight at 4 °C, six washes with PBS + 0.5% Tween-20; western blot

- binding: binds
B1: TAF1A, a subunit of selective factor 1 (SL1) (protein, UniProt Q15573 1-450)
chain: MSDFSEELKGPVTDDEEVETSVLSGAGMHFPWLQTYVETVAIGGKRRKDFAQTTSACLSFIQEALLKHQWQQAAEYMYSYFQTLEDSDSYKRQAAPEIIWKLGSEILFYHPKSNMESFNTFANRMKNIGVMNYLKISLQHALYLLHHGMLKDAKRNLSEAETWRHGENTSSREILINLIQAYKGLLQYYTWSEKKMELSKLDKDDYAYNAVAQDVFNHSWKTSANISALIKIPGVWDPFVKSYVEMLEFYGDRDGAQEVLTNYAYDEKFPSNPNAHIYLYNFLKRQKAPRSKLISVLKILYQIVPSHKLMLEFHTLLRKSEKEEHRKLGLEVLFGVLDFAGCTKNITAWKYLAKYLKNILMGNHLAWVQEEWNSRKNWWPGFHFSYFWAKSDWKEDTALACEKAFVAGLLLGKGCRYFRYILKQDHQILGKKIKRMKRSVKKYSIVNPRL
